Values quoted from earlier work in paper PMC3511310, “In Vivo Imaging and Quantification of Carbonic Anhydrase IX Expression as an Endogenous Biomarker of Tumor Hypoxia” (PLoS ONE, 2012).

Target: hCA XIV
Parameters: method as in PMID 22079760
Conditions: stopped-flow CO2 hydration method

Ki: 0.041 µM
SMILES: CC(=O)Nc1nnc(S(N)(=O)=O)s1 [AZ, acetazolamide]
